We go through 60 molecules from PubChem BioAssay AID2685 (National Center for Advancing Translational Sciences (NCATS), 2010).

Molecules are shown by their SMILES. The list shows a part of the results. Further columns of the screen follow, without active or inactive calls. The list favours compounds with an active or inconclusive main result. The note in brackets gives the kind of curve behind each potency; many fits are weak.

A short description of the assay: qHTS Assay for Lipid Storage Modulators in Drosophila S3 Cells.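 For cell number change: cells counted by Cell Tracker Red CMTPX staining in the red channel.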 As to conditions: BODIPY lipid droplet fluorescence, 18-24 h; for cell number change: measured here: cell count max response, cells fed with added oleic acid. A digest of the protocol:
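Drosophila S3 cells got compounds at several concentrations plus oleic acid (400 uM solution). Laser-scanning cytometry with 488 nm excitation read lipid droplets at 500-530 nm and cells at 575-640 nm. Percent activity was relative to 20 uM Triacsin C.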

Where [1] appears, read: measured here: lipid fluorescence (Fed channel) AC50, cells fed with added oleic acid.
Where [2] appears, read: measured here: cell number channel AC50, cells fed with added oleic acid.

Consider `CC(=O)c1ccc(NC(=S)NC(C)c2ccc(Cl)cc2Cl)cc1` (centres undefined), for which the cell number change was determined as 2.81%. Also, under setting [1], the concentration at half-maximal activity (AC50) is 16.4 µM [falling, partial curve].
In the case of `Cc1nc2ccccc2n1CC(O)Cn1c(C(F)(F)F)nc2ccccc21` (centres undefined), the cell number change was -23.5%. In addition, under setting [1], the concentration at half-maximal activity (AC50) is 29.1 µM [falling, single point].
Take `Cc1ccc(C(=O)NC2CCCCCCC2)c(Cl)c1`: the cell number change was 12%.
With `CC(=O)N(Cc1ccc(F)cc1)c1cccc(C)c1C`, the cell number change is 6.43%.
Regarding `O=[N+]([O-])c1ccc2nc(-c3ccccc3)oc2c1`, the cell number change was -1.59%. The concentration at half-maximal activity (AC50) under setting [2] was 0.651 µM [rising, single point].
`Cc1onc(-c2ccccc2Cl)c1C(=O)Nc1cccc2nsnc12`: the cell number change is 13%. For the same molecule, the half-maximal activity concentration (AC50) under setting [1] was 1.64 µM [rising, full curve].
For `COc1ccc(-c2nc(C3CCCCC3)c3cc(OC)ccc3n2)cc1`, the cell number change is -6.86%.
For `Cc1cc(C(=O)Nc2sc(C)c(C)c2C#N)c(C)o1`, the cell number change turned out to be 130%. Besides, the concentration at half-maximal activity (AC50) under setting [2] is 9.2 µM [rising, partial curve]. The AC50 under setting [1] is 7.31 µM [rising, partial curve].
With `O=C(CSc1nnc(NC2CCCCC2)s1)NCc1ccco1`, the cell number change was 7.44%. Besides, under setting [2], the AC50 was 1.16 µM [rising, full curve]. For the same molecule, under setting [1], the half-maximal activity concentration (AC50) was 0.82 µM [rising, full curve].
`c1cnc2c(OCc3cn4cccnc4n3)cccc2c1`: the cell number change amounted to 49.5%. Besides, the half-maximal activity concentration (AC50) under setting [2] is 0.231 µM [rising, partial curve].
Turning to `O=S(=O)(NCc1ccc(F)cc1)c1ccc(-c2cnc(C3CC3)o2)cc1`, the cell number change is -65.6%. Moreover, the AC50 under setting [2] is 20.6 µM [falling, partial curve, poor fit]. For the same molecule, the AC50 under setting [1] is 20.6 µM [falling, single point].
On to `Cc1ccccc1CN1C(=O)/C(=C\c2ccc(C(=O)NCCN3CCOCC3)cc2)Sc2ccccc21`, for which the cell number change was -31.8%. Besides, the half-maximal activity concentration (AC50) under setting [2] is 16.4 µM [falling, partial curve, poor fit]. For the same molecule, the AC50 under setting [1] was 5.8 µM [falling, partial curve].
As to `O=c1c2c([nH]c3ccccc13)CCCCCC2`, the half-maximal activity concentration (AC50) under setting [2] was 0.326 µM [falling, partial curve, poor fit].
As for `CCOC(=O)/C(=C\c1cccnc1)C(=O)c1cc(C(C)=O)c(Nc2ccccc2)s1`, the cell number change was -84.6%. Further, the AC50 under setting [2] was 29.1 µM [falling, single point]. Besides, the AC50 under setting [1] was 29.1 µM [falling, single point].
On to `Cc1c(C(=O)N2CCCC2)oc2c1-c1nn(CC(=O)NCCCOC(C)C)cc1CC2`, for which the cell number change was 42.2%. The AC50 under setting [2] was 29.1 µM [rising, single point].
Regarding `O=C(O)CC(C(=O)O)c1cn(Cc2ccccc2)c2ccccc12` (centres undefined), the cell number change was determined as 6.82%. Besides, the AC50 under setting [1] is 0.731 µM [falling, full curve, poor fit].
Take `Cn1c(O)c(/C=C2\C=Nc3ccccc32)sc1=Nc1ccc(C(=O)O)cc1`: the cell number change was -8.97%. Also, the half-maximal activity concentration (AC50) under setting [2] was 0.231 µM [falling, full curve, poor fit]. Besides, under setting [1], the half-maximal activity concentration (AC50) was 0.731 µM [falling, full curve].
With `Cc1ccc(N(C(=O)CNC(=O)c2ccco2)C(C(=O)NC2CCCCC2)c2cccnc2)cc1F` (centres undefined), the cell number change was -6.67%. For the same molecule, the AC50 under setting [1] was 29.1 µM [rising, partial curve].
In the case of `S=C(NCCCN1CCOCC1)N1CCN(c2ccccc2)CC1`, the AC50 under setting [1] is 6.51 µM [rising, single point].
`CCOc1ccccc1-n1c(SCC(N)=O)nnc1-c1ccco1`: the cell number change was -1.21%. Further, the AC50 under setting [1] was 0.58 µM [rising, single point].
Turning to `Nc1c(C(=O)OCC2CCCO2)c2nc3ccccc3nc2n1C1CCCCC1` (centres undefined), the cell number change was 15.4%. Further, the AC50 under setting [1] is 0.82 µM [rising, full curve].
For the molecule `CC(=O)c1cccc(NS(=O)(=O)N2CCCCC2)c1`, the cell number change was -17.9%. The AC50 under setting [1] is 0.82 µM [falling, partial curve].
`CCN(c1ccccc1)S(=O)(=O)c1ccc(Oc2ccc(C(C)=O)cc2OC)nc1`: the cell number change was -8.25%. In addition, under setting [1], the half-maximal activity concentration (AC50) was 1.84 µM [rising, partial curve, poor fit].
On to `Cc1cc2cc(CCNC(=O)c3c(-c4ccccc4Cl)noc3C)c(=O)[nH]c2cc1C`, for which, under setting [2], the AC50 was 0.82 µM [rising, single point].
Turning to `CC(=O)c1ccccc1N(C(=O)c1ccco1)C(C(=O)NC1CCCC1)c1ccc(C)cc1` (centres undefined), the cell number change was -28.6%. Also, the concentration at half-maximal activity (AC50) under setting [1] was 0.58 µM [falling, single point].
Take `O=C(O)c1ccc(S(=O)(=O)Cc2ccccc2)cc1`: the cell number change was -34.5%. In addition, the AC50 under setting [2] was 0.164 µM [falling, full curve]. Besides, the half-maximal activity concentration (AC50) under setting [1] is 0.164 µM [falling, full curve].
For `COc1cc(/C=N/NC(=O)c2cccc(S(=O)(=O)N3CCCCC3)c2)cc(Br)c1O`, the cell number change is -0.934%. Also, the half-maximal activity concentration (AC50) under setting [2] is 1.3 µM [falling, partial curve]. In addition, under setting [1], the concentration at half-maximal activity (AC50) was 1.3 µM [falling, partial curve].
In the case of `O=C(Nc1ccc(F)cc1)Oc1ccccc1N1CCOCC1`, the cell number change came to 0.0155%. For the same molecule, the half-maximal activity concentration (AC50) under setting [2] was 6.51 µM [falling, single point].
With `O=C(c1cccc(S(=O)(=O)Nc2ccc(F)cc2)c1)N1CCOCC1`, the cell number change is -8.65%.
Regarding `O=c1c2ccccc2nc2n1C(CSc1ccc(Br)cc1)CN2` (centres undefined), the cell number change is -27.3%. Besides, the AC50 under setting [1] was 0.164 µM [falling, full curve, poor fit].
Turning to `CCCn1c(SCC(=O)N2CCc3ccccc32)nnc1-c1ccco1`, the cell number change was -30.6%. For the same molecule, the AC50 under setting [2] was 2.59 µM [falling, full curve, poor fit]. Further, under setting [1], the AC50 was 6.51 µM [falling, single point].
For the molecule `C=CCn1c(SC(CCO)C(=O)NCc2ccco2)nc2sc3c(c2c1=O)CCC3` (centres undefined), the cell number change worked out at 0.194%. Under setting [1], the AC50 is 4.11 µM [rising, full curve, poor fit].
With `COc1ccc(NC(=O)CS(=O)c2ccc(F)cc2)cc1` (centres undefined), the cell number change is -3.93%.
On to `CN1CCN(/N=C/c2ccc(-c3ccc([N+](=O)[O-])cc3Cl)o2)CC1`, for which the cell number change is 43.3%. For the same molecule, under setting [2], the AC50 was 29.1 µM [rising, single point]. Also, the AC50 under setting [1] is 6.51 µM [falling, single point].
Take `COc1cc(/C(C)=N/Nc2ccc(C(=O)O)cc2)cc(OC)c1OC`: the cell number change was determined as 20.5%. The AC50 under setting [1] was 11.6 µM [rising, partial curve, poor fit].
Turning to `CCCCn1c(=O)n(C)c(=O)c2c(C(F)(F)F)cc(-c3ccncc3)nc21`, the cell number change came to 16.8%. Moreover, the concentration at half-maximal activity (AC50) under setting [1] was 0.82 µM [rising, partial curve].
In the case of `Cc1cnc(NC(=O)CSc2nnc3ncccn23)s1`, the cell number change stood at 22.2%.
For `O=C(COC(=O)c1nc(Cl)ccc1Cl)NCc1ccc(Cl)cc1Cl`, the cell number change amounted to 11.6%.
With `CCc1cc2c(=O)c(-c3ccc4c(c3)OCCO4)coc2cc1OC(=O)c1ccco1`, the concentration at half-maximal activity (AC50) under setting [2] is 6.51 µM [falling, single point].
`Cc1ccc(COC(=O)CCc2nc3ccccc3c(=O)[nH]2)cc1`: the cell number change amounted to 130%.
For `CC(C)c1nc(SCC(=O)N2CCN(c3ccccc3)CC2)c2c(=O)n(C)c(=O)n(C)c2n1`, the AC50 reads like this: under setting [2], 0.13 µM [rising, full curve, poor fit]; under setting [1], 0.146 µM [rising, full curve].
Regarding `COc1ccc(NC(=O)/C(=C\c2ccc(OS(=O)(=O)c3ccc(C)cc3)cc2)NC(=O)c2ccccc2)cc1`, the cell number change was 1.79%. The AC50 under setting [2] is 6.51 µM [falling, single point]. Further, the AC50 under setting [1] was 2.06 µM [falling, partial curve].
Regarding `NC(=O)c1c(NC(=O)c2ccco2)sc2c1CCC2`, the cell number change is -39.8%. In addition, the AC50 under setting [2] is 29.1 µM [falling, single point]. Also, under setting [1], the AC50 is 0.00411 µM [rising, full curve, poor fit].
In the case of `CCCCS(=O)(=O)Nc1ccc2ncn(C)c(=O)c2c1`, the cell number change was -3.3%. Moreover, the concentration at half-maximal activity (AC50) under setting [1] was 13 µM [falling, partial curve, poor fit].
For `O=c1cc2c(nn1Cc1ccccc1)-c1ccccc1CC2`, the cell number change came out at 88.1%. Further, the AC50 under setting [2] was 9.2 µM [rising, partial curve].
Take `Cc1ccc(N2CC(C(=O)Nc3cc(Cl)ccc3-n3cncn3)CC2=O)cc1` (centres undefined): the cell number change came to 30.8%. For the same molecule, the AC50 under setting [2] is 0.731 µM [rising, full curve, poor fit]. Moreover, under setting [1], the AC50 was 0.82 µM [rising, full curve, poor fit].
`N#Cc1nc(-c2ccc(Cl)cc2)oc1NCc1ccco1`: the cell number change is -9.39%. In addition, the AC50 under setting [1] was 3.26 µM [rising, full curve].
Turning to `NNC(=O)CNC(=O)C12CC3CC(CC(C3)C1)C2`, the cell number change was -11.4%. Also, the half-maximal activity concentration (AC50) under setting [1] was 29.1 µM [rising, single point].
As to `Cc1ccc(C2(C)NC(=O)N(CC(=O)NNC(=O)c3ccoc3C)C2=O)cc1` (centres undefined), the cell number change was -22.8%. Further, the AC50 under setting [1] is 1.3 µM [falling, full curve].
`C/C=C(\C)C(=O)NNC(=O)c1sc(-c2ccccc2)nc1C`: the concentration at half-maximal activity (AC50) under setting [1] was 10.3 µM [rising, partial curve, poor fit].
Turning to `COCCNC(=S)Nc1ccc(N2CCOCC2)c(S(=O)(=O)Nc2ccccc2OC)c1`, the cell number change was -45.2%. In addition, the AC50 under setting [2] is 0.82 µM [falling, full curve, poor fit]. The AC50 under setting [1] is 0.82 µM [falling, full curve, poor fit].
Take `CCCCCCOC(=O)NCC(O)c1ccccc1` (centres undefined): the cell number change is -14.6%.
On to `CC(C)(C)C(=O)NC(=S)N1CCc2ccccc21`, for which the cell number change was determined as 4.77%. Besides, under setting [1], the half-maximal activity concentration (AC50) is 4.11 µM [falling, single point].
`COc1ccc(NC(=S)NCc2cccnc2)cc1`: the cell number change was -13%. Besides, the AC50 under setting [2] is 0.206 µM [falling, full curve, poor fit]. Moreover, under setting [1], the AC50 is 29.1 µM [falling, single point].
For the molecule `CCOC(=O)N1CCN(C(=O)CSc2ccc(-c3cccc(OC)c3)nn2)CC1`, the cell number change is -38.1%. The concentration at half-maximal activity (AC50) under setting [2] was 18.4 µM [falling, single point].
Consider `COc1ccc(C(=O)COC(=O)CNC(=O)c2cc(OC)cc(OC)c2)cc1`, for which the cell number change is 26.4%. Besides, under setting [2], the AC50 was 0.00517 µM [rising, full curve, poor fit].
For the molecule `COCCN(C(=O)COC(=O)CSc1ccccc1)c1c(N)n(Cc2ccccc2)c(=O)[nH]c1=O`, the cell number change is 8.43%.
Same read-out and setting: to `O=C(CCC(=O)N1CCSc2ccccc21)NCc1cccc(Br)c1` belongs -18.4%; to `O=C(Nc1nccs1)C1CC=CCC1` (centres undefined), 24.6%.
On to `CC(C)=CCc1c(O)cc2oc3c(CC=C(C)C)c(O)c(O)c(CC=C(C)C)c3c(=O)c2c1O`, for which the cell number change is -74.2%. Besides, the AC50 under setting [2] is 29.1 µM [falling, single point]. In addition, under setting [1], the AC50 was 29.1 µM [falling, single point].
